{
  "sequences": {"note": "Sequences of proteins named here, by UniProt entry; tags and fusion partners are left off. Residues count along the entry.", "UniProt Q02763, 23-1124": "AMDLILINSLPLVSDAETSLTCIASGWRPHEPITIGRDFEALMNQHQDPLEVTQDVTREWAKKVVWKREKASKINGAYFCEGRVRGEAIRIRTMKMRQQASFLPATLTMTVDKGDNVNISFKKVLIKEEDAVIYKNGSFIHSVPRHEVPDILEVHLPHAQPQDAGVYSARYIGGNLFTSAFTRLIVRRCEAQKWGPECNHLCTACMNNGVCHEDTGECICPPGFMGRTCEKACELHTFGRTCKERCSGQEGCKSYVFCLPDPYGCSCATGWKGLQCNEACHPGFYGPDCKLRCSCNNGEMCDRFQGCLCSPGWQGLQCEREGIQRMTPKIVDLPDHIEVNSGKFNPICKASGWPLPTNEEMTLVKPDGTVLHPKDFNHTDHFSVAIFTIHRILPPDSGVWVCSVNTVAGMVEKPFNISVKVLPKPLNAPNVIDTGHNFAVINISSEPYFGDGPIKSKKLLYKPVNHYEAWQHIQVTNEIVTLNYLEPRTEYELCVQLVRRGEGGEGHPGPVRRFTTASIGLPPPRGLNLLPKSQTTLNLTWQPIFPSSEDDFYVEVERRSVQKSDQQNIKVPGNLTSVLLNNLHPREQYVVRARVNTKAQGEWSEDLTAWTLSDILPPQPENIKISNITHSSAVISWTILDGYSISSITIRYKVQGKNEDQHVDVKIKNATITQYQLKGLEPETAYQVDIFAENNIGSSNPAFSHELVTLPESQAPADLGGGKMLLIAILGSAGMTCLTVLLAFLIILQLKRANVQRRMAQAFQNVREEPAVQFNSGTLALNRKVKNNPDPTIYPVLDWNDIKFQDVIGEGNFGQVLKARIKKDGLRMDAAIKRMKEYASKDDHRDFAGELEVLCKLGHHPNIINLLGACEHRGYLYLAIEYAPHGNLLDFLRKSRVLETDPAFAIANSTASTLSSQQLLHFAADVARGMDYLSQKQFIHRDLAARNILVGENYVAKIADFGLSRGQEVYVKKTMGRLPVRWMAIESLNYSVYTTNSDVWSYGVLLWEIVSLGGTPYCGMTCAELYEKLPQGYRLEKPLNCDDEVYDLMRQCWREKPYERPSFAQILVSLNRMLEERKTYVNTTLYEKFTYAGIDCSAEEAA"},
  "source": "patent US8476434B2",
  "about": "“Protein kinase modulators and method of use” (Amgen Inc., priority 2004, dated 2013)",
  "note": "Some entries share one result that the patent states for a list of compounds.",
  "data": [
    {"target": "Tie-2 kinase enzyme (Homo sapiens, UniProt Q02763)", "assay": "Tie-2 Homogenous Time Resolved Fluorescent (HTRF) kinase assay", "type": "biochemical", "settings": "read-out: IC50's for the inhibition of Tie-2 as measured by the HTRF assay", "units": {"IC50": "µM"}, "values": [
      {"smiles": "CNc1nccc(-c2cccnc2Oc2ccc(F)c(C(=O)Nc3cc(C(F)(F)F)ccc3CN3CC[C@H](N(C)C)C3)c2)n1", "note": "[Example 475, N-(2-(((3S)-3-(dimethylamino)-1-pyrrolidinyl)methyl)-5-(trifluoromethyl)phenyl)-2-fluoro-5-((3-(2-(methylamino)-4-pyrimidinyl)-2-pyridinyl)oxy)benzamide]", "IC50": "< 5"},
      {"smiles": "CCOc1cccc(NC(=O)c2cc(Oc3ncccc3-c3ccnc(NC)c3)ccc2F)c1", "note": "[Example 477, N-(3-(ethyloxy)phenyl)-2-fluoro-5-((2′-(methylamino)-3,4′-bipyridin-2-yl)oxy)benzamide]", "IC50": "< 5"},
      {"smiles": "CNc1ncnc(-c2cccnc2Oc2ccc(F)c(C(=O)Nc3cc(C(F)(F)F)ccc3N(C)C3CCN(C)C3)c2)n1", "note": "(stereo not drawn) [Example 478, 2-fluoro-5-((3-(4-(methylamino)-1,3,5-triazin-2-yl)-2-pyridinyl)oxy)-N-(2-(methyl(1-methyl-3-pyrrolidinyl)amino)-5-(trifluoromethyl)phenyl) benzamide]", "IC50": "< 5"},
      {"smiles": "CNc1nccc(-c2cccnc2Oc2cc(C(=O)Nc3cccc(C(C)C)c3)cc(C)n2)n1", "note": "[Example 479, 2-methyl-6-((3-(2-(methylamino)-4-pyrimidinyl)-2-pyridinyl)oxy)-N-(3-(1-methylethyl)phenyl)-4-pyridinecarboxamide]", "IC50": "< 5"},
      {"smiles": "CNc1nccc(-c2cccnc2Oc2cc(C(=O)Nc3cc(OC)cc(C(F)(F)F)c3)cc(C)n2)n1", "note": "[Example 480, 2-methyl-6-((3-(2-(methylamino)-4-pyrimidinyl)-2-pyridinyl)oxy)-N-(3-(methyloxy)-5-(trifluoromethyl)phenyl)-4-pyridinecarboxamide]", "IC50": "< 5"},
      {"smiles": "CNc1nccc(-c2cccnc2Oc2cc(C(=O)Nc3cc(C(F)(F)F)ccc3N(C)CCCN(C)C)c(F)cc2C)n1", "note": "[Example 481, N-(2-((3-(dimethylamino)propyl) (methyl)amino)-5-(trifluoromethyl)phenyl)-2-fluoro-4-methyl-5-((3-(2-(methylamino)-4-pyrimidinyl)-2-pyridinyl)oxy)benzamide]", "IC50": "< 5"},
      {"smiles": "CNc1nccc(-c2cccnc2Oc2cc(C(=O)Nc3cc(C(F)(F)F)ccc3N3CC[C@@H](N(C)C)C3)c(F)cc2C)n1", "note": "[Example 482, N-(2-((3R)-3-(dimethylamino)-1-pyrrolidinyl)-5-(trifluoromethyl)phenyl)-2-fluoro-4-methyl-5-((3-(2-(methylamino)-4-pyrimidinyl)-2-pyridinyl)oxy)benzamide]", "IC50": "< 5"},
      {"smiles": "CNc1ncnc(-c2cccnc2Oc2cc(C(=O)Nc3cccc(C(C)C)c3)c(F)cc2C)n1", "note": "[Example 483, 2-fluoro-4-methyl-5-((3-(4-(methylamino)-1,3,5-triazin-2-yl)-2-pyridinyl)oxy)-N-(3-(1-methylethyl)phenyl) benzamide]", "IC50": "< 5"},
      {"smiles": "CNc1ncnc(-c2cccnc2Oc2ccc(F)c(C(=O)Nc3cc(C(F)(F)F)ccc3N(C)C3CCN(C)CC3)c2)n1", "note": "[Example 484, 2-fluoro-5-((3-(4-(methylamino)-1,3,5-triazin-2-yl)-2-pyridinyl)oxy)-N-(2-(methyl(1-methyl-4-piperidinyl)amino)-5-(trifluoromethyl)phenyl) benzamide]", "IC50": "< 5"},
      {"smiles": "CNc1nccc(-c2cccnc2Oc2ccc(F)c(C(=O)Nc3cc(C(F)(F)F)ccc3N(C)C3CCN(C)CC3)c2)n1", "note": "[Example 485, 2-fluoro-5-((3-(2-(methylamino)-4-pyrimidinyl)-2-pyridinyl)oxy)-N-(2-(methyl(1-methyl-4-piperidinyl)amino)-5-(trifluoromethyl)phenyl) benzamide]", "IC50": "< 5"},
      {"smiles": "CNc1nccc(-c2cccnc2Oc2cc(Br)cc(C(=O)Nc3cccc(C(C)C)c3)c2)n1", "note": "[Example 486, 3-bromo-5-((3-(2-(methylamino)-4-pyrimidinyl)-2-pyridinyl)oxy)-N-(3-(1-methylethyl)phenyl) benzamide]", "IC50": "< 5"},
      {"smiles": "CNc1nccc(-c2cccnc2Oc2cc(Br)cc(C(=O)Nc3cc(OC)cc(C(F)(F)F)c3)c2)n1", "note": "[Example 487, 3-bromo-5-((3-(2-(methylamino)-4-pyrimidinyl)-2-pyridinyl)oxy)-N-(3-(methyloxy)-5-(trifluoromethyl)phenyl) benzamide]", "IC50": "< 5"},
      {"smiles": "CNc1nccc(-c2cccnc2Oc2cc(C(=O)Nc3cc(C(F)(F)F)ccc3N(C)C3CCN(C)CC3)c(F)cc2C)n1", "note": "[Example 488, 2-fluoro-4-methyl-5-((3-(2-(methylamino)-4-pyrimidinyl)-2-pyridinyl)oxy)-N-(2-(methyl(1-methyl-4-piperidinyl)amino)-5-(trifluoromethyl)phenyl) benzamide]", "IC50": "< 5"},
      {"smiles": "CNc1ncnc(-c2cccnc2Oc2cc(C(=O)Nc3cc(C(F)(F)F)ccc3N(C)C3CCN(C)CC3)c(F)cc2C)n1", "note": "[Example 489, 2-fluoro-4-methyl-5-((3-(4-(methylamino)-1,3,5-triazin-2-yl)-2-pyridinyl)oxy)-N-(2-(methyl(1-methyl-4-piperidinyl)amino)-5-(trifluoromethyl)phenyl) benzamide]", "IC50": "< 5"},
      {"smiles": "CNc1nccc(-c2cccnc2Oc2cc(Br)cc(C(=O)Nc3cc(C(F)(F)F)ccc3N(C)CCCN(C)C)c2)n1", "note": "[Example 490, 3-bromo-N-(2-((3-(dimethylamino)propyl) (methyl)amino)-5-(trifluoromethyl)phenyl)-5-((3-(2-(methylamino)-4-pyrimidinyl)-2-pyridinyl)oxy)benzamide]", "IC50": "< 5"},
      {"smiles": "CNc1nccc(-c2cccnc2Oc2cc(F)cc(C(=O)Nc3cccc(C(C)C)c3)c2)n1", "note": "[Example 492, 3-fluoro-5-((3-(2-(methylamino)-4-pyrimidinyl)-2-pyridinyl)oxy)-N-(3-(1-methylethyl)phenyl) benzamide]", "IC50": "< 5"},
      {"smiles": "CNc1nccc(-c2cccnc2Oc2cccc(C(=O)Nc3cccc(C(C)C)c3)c2F)n1", "note": "[Example 494, 2-fluoro-3-((3-(2-(methylamino)-4-pyrimidinyl)-2-pyridinyl)oxy)-N-(3-(1-methylethyl)phenyl) benzamide]", "IC50": "< 5"},
      {"smiles": "CNc1ncnc(-c2cccnc2Oc2cc(C(=O)Nc3cc(C(F)(F)F)ccc3N(C)C3CCN(C)C3)c(F)cc2C)n1", "note": "(stereo not drawn) [Example 496, 2-fluoro-4-methyl-5-((3-(4-(methylamino)-1,3,5-triazin-2-yl)-2-pyridinyl)oxy)-N-(2-(methyl(1-methyl-3-pyrrolidinyl)amino)-5-(trifluoromethyl)phenyl) benzamide]", "IC50": "< 5"},
      {"smiles": "CNc1nccc(-c2cccnc2Oc2cc(F)cc(C(=O)Nc3cc(OC)cc(C(F)(F)F)c3)c2)n1", "note": "[Example 497, 3-fluoro-5-((3-(2-(methylamino)-4-pyrimidinyl)-2-pyridinyl)oxy)-N-(3-(methyloxy)-5-(trifluoromethyl)phenyl) benzamide]", "IC50": "< 5"},
      {"smiles": "CNc1ncnc(-c2cccnc2Oc2cc(F)cc(C(=O)Nc3cccc(C(C)C)c3)c2)n1", "note": "[Example 498, 3-fluoro-5-((3-(4-(methylamino)-1,3,5-triazin-2-yl)-2-pyridinyl)oxy)-N-(3-(1-methylethyl)phenyl) benzamide]", "IC50": "< 5"},
      {"smiles": "CNc1ncnc(-c2cccnc2Oc2cc(C(=O)Nc3cc(C(F)(F)F)ccc3N(C)CCCN(C)C)c(F)cc2C)n1", "note": "[Example 499, N-(2-((3-(dimethylamino)propyl) (methyl)amino)-5-(trifluoromethyl)phenyl)-2-fluoro-4-methyl-5-((3-(4-(methylamino)-1,3,5-triazin-2-yl)-2-pyridinyl)oxy)benzamide]", "IC50": "< 5"}
    ]}
  ]
}
